The test system of series [1] is soluble IgM (pentameric). As to the kind of experiment: competition with a labelled probe. The settings on record: purified native protein, single-stranded DNA.
In series [2] the target is membrane-bound IgM (mIgM, immunoglobulin heavy mu chain) on Ramos cells (Homo sapiens) (UniProt P01871). Briefly: flow cytometry. The settings on record: Bmax/2 (Kd') on Ramos cells, 37 C, 20 mM MgCl2, protein on the cell surface, label: 5' Cy3, single-stranded DNA, letters built from the parent sequence and the stated change, variant of TD05.17.

Chains of the proteins cited; added tags and fusions are not shown.
UniProt P01871, whole entry: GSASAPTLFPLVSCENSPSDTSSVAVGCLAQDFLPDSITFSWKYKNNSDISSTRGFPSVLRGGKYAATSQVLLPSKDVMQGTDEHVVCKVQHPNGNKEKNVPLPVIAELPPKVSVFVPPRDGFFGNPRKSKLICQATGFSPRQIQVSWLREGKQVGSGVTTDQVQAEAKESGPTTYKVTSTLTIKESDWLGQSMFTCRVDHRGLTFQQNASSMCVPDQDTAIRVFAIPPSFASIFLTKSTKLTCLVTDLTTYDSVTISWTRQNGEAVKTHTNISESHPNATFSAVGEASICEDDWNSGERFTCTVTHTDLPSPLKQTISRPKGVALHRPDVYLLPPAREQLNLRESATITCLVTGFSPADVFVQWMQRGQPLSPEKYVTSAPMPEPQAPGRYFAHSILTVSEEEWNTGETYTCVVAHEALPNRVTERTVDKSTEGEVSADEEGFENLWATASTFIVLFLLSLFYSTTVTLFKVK

For at least one entry, the source does not settle the construct or the ends of the probe. For some of these results: A negative result means that nothing was seen under these conditions. For some of these results: Where cells or extracts were used, other partners may take part.

What is called Kd is a measure of binding affinity in units of concentration.

Take “AGGAGGATAGTTCGGTGGCTGTTCAGGGTCTCCTCCT [TD05.1]”: in series [1] (excess soluble IgM or 20% human serum does not affect aptamer binding to Ramos cells, label: 5' fluorophore, variant of TD05), the binding result is “no binding”.

Consider “AGGAGGATAGTTCGGTGGCTGTTCAGGGTCTCCTCCTAGGAGGATAGTTCGGTGGCTGTTCAGGGTCTCCTCCTAGGAGGATAGTTCGGTGGCTGTTCAGGGTCTCCTCCT [L-TVA.8S]”, for which the Kd in series [2] (three LNA-modified TD05.17 joined by (PEG spacer 18)8, sp18 at 5' and 3' ends [LNA at 34,35,36,37,71,72,73,74,108,109,110,111, 5' label-sp18, (PEG spacer 18)8 between 37/38 and 74/75 and 3' sp18 left out, A75 taken from parent TD05.17 (missing in printed string)]) was determined as 256 nM. As for “AGGAGGATAGTTCGGTGGCTGTTCAGGGTCTCCTCCTAGGAGGATAGTTCGGTGGCTGTTCAGGGTCTCCTCCTAGGAGGATAGTTCGGTGGCTGTTCAGGGTCTCCTCCTAGGAGGATAGTTCGGTGGCTGTTCAGGGTCTCCTCCT [L-TetVA.8S]”, the dissociation constant Kd in series [2] (four LNA-modified TD05.17 joined by (PEG spacer 18)8, sp18 at 5' and 3' ends [LNA at 34,35,36,37,71,72,73,74,108,109,110,111,145,146,147,148, 5' label-sp18, (PEG spacer 18)8 between 37/38, 74/75 and 111/112 and 3' sp18 left out, A75 and A112 taken from parent TD05.17 (missing in printed string)]) was 272 nM. For the sequence “AGGAGGATAGTTCGGTGGCTGTTCAGGGTCTCCTCCTAGGAGGATAGTTCGGTGGCTGTTCAGGGTCTCCTCCTAGGAGGATAGTTCGGTGGCTGTTCAGGGTCTCCTCCTAGGAGGATAGTTCGGTGGCTGTTCAGGGTCTCCTCCT [TetVA.8S]”, the binding result in series [1] (four TD05.1 joined by (PEG spacer 18)8 [(PEG spacer 18)8 linkers between 37/38, 74/75 and 111/112 left out], excess soluble IgM does not affect binding to Ramos cells, decrease seen in 50% human serum, label: 5' FITC, letters built from the parent sequence and the stated change, variant of TD05.1) was “no binding”.

These data come from patent US20160138021.
